Source: PubChem BioAssay AID2551 (National Center for Advancing Translational Sciences (NCATS), 2010)
Hit rate of the full screen: of about 310,000 compounds, about 17,000 (5.5%) were called active. The shares of active, inactive and inconclusive entries below differ from those in the screen. Calls come from the whole dose curve; as a rule, active = well fitted inhibition curve with a large enough effect; inconclusive = small, poorly fitted or top-dose-only effect, or effect the other way; inactive = no such curve, though single readings can be large or run the other way. Potencies of inconclusive entries are doubtful fits and often do not repeat.

Amino acid sequences for entries named in this document (tags omitted). A change or cut given only in a name is not applied to a line headed by its entry.
UniProt P51450: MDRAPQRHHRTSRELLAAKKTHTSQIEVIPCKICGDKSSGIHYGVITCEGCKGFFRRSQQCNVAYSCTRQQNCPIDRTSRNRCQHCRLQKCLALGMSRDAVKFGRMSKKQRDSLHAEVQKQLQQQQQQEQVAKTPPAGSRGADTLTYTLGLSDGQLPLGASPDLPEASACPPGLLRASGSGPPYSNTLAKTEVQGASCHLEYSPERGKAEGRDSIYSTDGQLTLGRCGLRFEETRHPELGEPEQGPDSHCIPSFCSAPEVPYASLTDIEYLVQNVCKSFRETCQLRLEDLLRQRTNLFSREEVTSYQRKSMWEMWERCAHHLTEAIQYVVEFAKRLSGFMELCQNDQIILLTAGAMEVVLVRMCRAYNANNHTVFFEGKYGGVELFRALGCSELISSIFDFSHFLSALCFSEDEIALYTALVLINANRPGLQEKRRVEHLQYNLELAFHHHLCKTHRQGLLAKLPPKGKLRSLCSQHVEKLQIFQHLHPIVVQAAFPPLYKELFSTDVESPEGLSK

target: Nuclear receptor ROR-gamma (Mus musculus) (UniProt P51450); test: qHTS for inhibitors of ROR gamma transcriptional activity; conditions: Drosophila S2 Gal4-RORgamma UAS-luciferase reporter, 20 h; activity change, negative = inhibition: at 53.6 µM (top of the series); note: nearly all actives have a fitted effect of over 60% in size
Procedure, shortened: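 Drosophila Schneider cells stably carrying a metallothionein-driven Gal4 DBD–ROR gamma fusion and a UAS-Photinus luciferase reporter were exposed to compound for 1 hr, then induced with copper sulfate (700 uM final) for 20 hr at ambient temperature before luminescence reading.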
% is set by controls: 0 for no effect and ±100 for the full control effect; potency is the fitted concentration of half-maximal effect.

Potency, inconclusive:
CCC(C)n1c(-c2cccc(S(=O)(=O)N(CC)CC)c2)n[nH]c1=S (stereo not drawn) 7.08 µM [inhibitor, partial curve], Cc1ccc(C(=O)N[C@@H](C)CN2C3=NC[C@H](C(C)C)N3C[C@H]2Cc2ccc(O)cc2)cc1Br 35.5 µM [inhibitor, single point], Cc1nc(Nc2ccc(Cl)c(Cl)c2)sc1C(=O)Nc1ccccc1 5.01 µM [activator, single point], CC(C)Oc1ccc(-c2cc(C(=O)NCCN3CCOCC3)c3ccccc3n2)cc1 10 µM [inhibitor, single point], CCc1ccc(OCC(=O)O/N=C(\N)c2cccnc2)cc1 15.8 µM [activator, single point], Cc1ccc(NC(=S)N(CCCN2CCCC(C)C2)Cc2ccco2)cc1C (stereo not drawn) 25.1 µM [inhibitor, single point], CSc1nccc(NC(=O)c2cccc(Br)c2)n1 35.5 µM [activator, single point], CCCc1nc2ccccc2c(=O)n1/N=C/c1ccc(O)cc1O 25.1 µM [inhibitor, single point], CN(C)CCNc1ncnc2c1cnn2-c1ccc(Cl)cc1 12.6 µM [inhibitor, single point], Cc1cc(NC(=O)c2oc3ccccc3c2C)ccc1-n1cnnn1 5.62 µM [activator, single point], CCOC(=O)C1(CCc2ccccc2)CCN(C2Cc3ccccc3C2)CC1 35.5 µM [inhibitor, single point], Cc1cc(N2CCOCC2)nc2ccc(NC(=O)CCC(=O)N3CCN(c4ccccc4F)CC3)cc12 7.08 µM [activator, partial curve], CCCc1ccc(OCc2ccc(C(=O)OC)o2)c(OC)c1 8.91 µM [activator, partial curve], Cc1c(C)c(C)c2[nH]c(-c3ccc4c(c3)OCO4)nc2c1C 7.94 µM [inhibitor, partial curve], CC(C)C(c1nnnn1C(C)(C)C)N1CCC(Cc2ccccc2)CC1 (stereo not drawn) 12.6 µM [inhibitor, single point], Cc1ccc(NC(=O)c2noc3c2CCC3)cc1C 12.6 µM [inhibitor, single point], COc1ccc(-c2nc(C(N)=O)c3[nH]c(=O)n(-c4cccc(Cl)c4)c3n2)cc1OC 31.6 µM [inhibitor, single point], COc1cccc(/C=C2\C(=O)N(c3cccc(C)c3)C(=O)c3ccccc32)c1 25.1 µM [inhibitor, single point], Cc1cccc(NS(=O)(=O)c2ccc(-c3cnc(C4CC4)o3)cc2)c1 35.5 µM [activator, single point], COc1cccc(N(C(=O)c2snc(C(N)=O)c2N)C(C(=O)NCC2CCCO2)c2c[nH]c3ccccc23)c1 (stereo not drawn) 31.6 µM [activator, single point], O=S(=O)(Nc1nc2ccccc2nc1Nc1ccc(N2CCOCC2)cc1)c1cc(Cl)ccc1Cl 3.16 µM [activator, full curve], CCN1CNC(=S)N(c2cc(C)ccc2C)C1 8.91 µM [inhibitor, partial curve, poor fit], Fc1ccccc1/C=N/n1c(-c2cccnc2)n[nH]c1=S 35.5 µM [inhibitor, single point], O=C(CCc1nnc(-c2ccsc2)o1)NCc1ccccc1OC(F)(F)F 17.8 µM [activator, single point], CC(=O)Nc1ccc(S(=O)(=O)N(C)CC(=O)N/N=C/c2ccc(C(=O)O)cc2)cc1 1.41 µM [activator, single point], Cc1cc(C)cc(NC(=O)N2CCNC(=O)C2CC(=O)Nc2cc(Cl)ccc2Cl)c1 (stereo not drawn) 10 µM [activator, partial curve, poor fit], CC(C)Cn1c(N)c(C(=O)CSc2ccc3c(c2)OCCO3)c(=O)n(C)c1=O 1.58 µM [activator, single point], Cc1c(NC(=O)CN2CCN(c3ccc([N+](=O)[O-])cc3)CC2)c(=O)n(-c2ccccc2)n1C 12.6 µM [activator, partial curve], CC(C)(C)NC(=O)c1ccncc1 0.447 µM [inhibitor, partial curve, poor fit], CCn1cc(C(=O)N2CCN(c3ccccn3)CC2)c(=O)c2cc(S(=O)(=O)N(C)C3CCCCC3)ccc21 17.8 µM [activator, single point], CC1(COS(N)(=O)=O)CCCCC1 22.4 µM [inhibitor, single point], CC1Oc2ccccc2N(CC(=O)c2ccc(F)cc2)C1=O (stereo not drawn) 20 µM [inhibitor, single point], Cc1ccc(NC(=S)NC(=O)/C=C/c2ccc(Cl)cc2)cc1 5.62 µM [inhibitor, partial curve], COc1ccccc1Oc1ccc(NC(=O)c2ccccc2)cc1 22.4 µM [activator, single point], Clc1ccccc1-c1ccc2ncnc(NCc3cccnc3)c2c1 11.2 µM [activator, partial curve], Cc1ccc2c(C)nc(SC(C(=O)c3ccccc3)c3ccccc3)nc2c1 (stereo not drawn) 35.5 µM [inhibitor, single point], CCOc1cc(C=C(C(=O)OC)C(=O)OC)ccc1OCc1ccc([N+](=O)[O-])cc1 35.5 µM [inhibitor, single point], CC1CCCN(C(=O)CSc2nnc(-c3ccncc3)n2C)C1 (stereo not drawn) 12.6 µM [activator, partial curve]

Potency, active:
CC(C)C[C@H](NC(=O)c1nc[nH]c1C(=O)N1CCc2ccccc2C1)C(=O)OC(C)(C)C 11.2 µM, CCCC(=O)NC(c1ccc(C)cc1)c1ccc2cccnc2c1O (stereo not drawn) 1.58 µM, O=C(CCSc1ccc(Cl)cc1)c1ccco1 11.2 µM, CC(C)CC1CC(C)(c2csc(NNC(=O)c3ccccc3)n2)OC1=O (stereo not drawn) 10 µM, N#Cc1ccc(-c2csc(NNC(=O)c3ccccc3)n2)cc1 11.2 µM, COc1ccc(C2CC(c3ccc(Cl)cc3Cl)Nc3nc(N)nn32)cc1 (stereo not drawn) 5.62 µM, NC(=S)NN=C(Cc1ccccc1)Cc1ccccc1 1.41 µM, CCC1CCCCN1S(=O)(=O)c1ccc(NC(=O)c2nc(S(C)(=O)=O)ncc2Cl)cc1 (stereo not drawn) 3.16 µM, Cc1nn(-c2nnc(C)c(=O)[nH]2)c(C)c1SCC(=O)Nc1ccc(C(C)C)cc1 1.12 µM, O=C(Nc1nc2ccccc2[nH]1)C12CC3CC(CC(C3)C1)C2 6.31 µM

Activity change, negative = inhibition, inactive:
Cc1ccc(C)n1NC(=O)c1ccccc1Cl 4.59%, CC1(C)OC(=O)C(=CNNc2c(Cl)cc(Cl)cc2Cl)C(=O)O1 -28.8%, CNC(=O)[C@@H](Cc1ccccc1)N(C)C(=O)[C@@H](Cc1ccc2ccccc2c1)N(C)C(=O)/C=C/CC(C)(C)N -4.54%, CCCCC1CCC(C(=O)OC(C)C(=O)Nc2ccc(NC(C)=O)cc2)CC1 (stereo not drawn) 0.769%, NNC(=O)CCCCCCCCCCOCCCCO 22.1%, COc1ccc(N(CC(=O)Nc2cc([N+](=O)[O-])ccc2C)S(C)(=O)=O)cc1OC 13.2%, COC(=O)c1cccnc1Oc1ccccc1 -8.73%, O=C(N/N=C/c1ccco1)c1ccc(NC(=O)c2ccc(Cl)cc2)cc1 2.61%, C=C1CCN(C(CC(C)C)C(=O)O)S(=O)(=O)c2ccccc21 (stereo not drawn) 10.7%, O=C(COc1ccc2ccccc2c1)N1CCN(C(=O)c2ccc([N+](=O)[O-])cc2)CC1 -0.0088%, COc1ccc(C2C(C(=O)O)c3ccccc3C(=O)N2C)cc1Br (stereo not drawn) 40.2%, CN(c1ccccc1)S(=O)(=O)c1cccc(NS(=O)(=O)c2ccc(/C=C/C(=O)O)cc2)c1 -4.34%, COC(=O)CC1COc2ccccc2N1S(=O)(=O)c1ccc(OC)cc1 (stereo not drawn) 3.87%, COc1nn(C(C)C(=O)N2N=C(C(F)F)CC2(O)C(F)F)cc1[N+](=O)[O-] (stereo not drawn) -20.8%, COc1cccc(CNC(=O)CCCC(=O)NC(C)CCc2ccccc2)c1 (stereo not drawn) 1.98%, Cn1c(=O)oc2cc(S(=O)(=O)Nc3ccc4c(c3)OCO4)ccc21 12.5% [at 10 µM], Cc1ccc(Nc2c(-c3ccccc3O)nc3ncccn23)cc1 -10.5%, Cc1onc(-c2ccc3c(c2)OCO3)c1-c1ccc2[nH]ccc2c1 15.1%, COCCn1c(Cc2cccn2C)nnc1SCC(=O)NCc1ccc2c(c1)OCO2 0.562%, Nc1nc(Cl)cc(Sc2ccc3ccccc3c2)n1 -10%, O=C(NC1CCCCC1)c1ccc(S(=O)(=O)c2ccccc2Cl)c([N+](=O)[O-])c1 -6.2%, COc1ccc(C(=O)Nc2ccc(C(F)(F)F)n(C)c2=O)cc1 9.32%, COc1cccc(NC(=S)N2CCN(S(=O)(=O)c3ccc(F)cc3)CC2)c1 -20.3%, COc1ccc(Nc2nc(N)nc(CN3CCN(c4ccc(F)cc4)CC3)n2)cc1 -1.22%, Cc1nc(N2CCC(C)CC2)c2c(C)c(C(=O)O)sc2n1 -21.8% [at 0.365 µM]
